The exact form of at least one protein or probe is not confirmed. Results from cells or extracts need not show a direct contact.

Protein sequences, listed by entry. Tags and fused reporters are not part of them. Lines headed by an entry give the natural chain unless they say otherwise; changes in a name come on top.
UniProt Q9NQB0: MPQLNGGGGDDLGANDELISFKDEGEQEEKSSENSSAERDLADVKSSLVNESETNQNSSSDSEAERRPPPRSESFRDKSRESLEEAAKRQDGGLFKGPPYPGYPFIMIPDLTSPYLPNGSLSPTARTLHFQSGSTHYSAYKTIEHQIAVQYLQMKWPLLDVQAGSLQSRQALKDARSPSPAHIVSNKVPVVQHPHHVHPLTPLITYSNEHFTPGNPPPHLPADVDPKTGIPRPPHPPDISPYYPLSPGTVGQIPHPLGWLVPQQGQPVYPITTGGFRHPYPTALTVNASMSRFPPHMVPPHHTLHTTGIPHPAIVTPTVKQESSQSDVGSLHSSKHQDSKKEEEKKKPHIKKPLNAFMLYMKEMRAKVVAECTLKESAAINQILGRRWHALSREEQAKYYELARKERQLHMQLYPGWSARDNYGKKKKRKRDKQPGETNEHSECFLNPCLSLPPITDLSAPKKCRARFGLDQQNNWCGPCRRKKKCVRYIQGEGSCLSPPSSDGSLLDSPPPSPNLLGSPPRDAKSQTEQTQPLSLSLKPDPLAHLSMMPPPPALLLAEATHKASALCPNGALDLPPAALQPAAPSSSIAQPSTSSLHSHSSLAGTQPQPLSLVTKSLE

The target of this series is FLAG-TCF4 (UniProt Q9NQB0). As to the kind of experiment: EMSA supershift. The conditions noted are these: anti-FLAG, LightShift chemiluminescent EMSA kit binding buffer (composition and pH not given), 4 ug HEK293T nuclear extract, 30 min at room temperature, then 30 min with anti-FLAG, protein in an extract, protein details: FLAG. On the technique in general: A gel shift assay detects complexes by their altered migration in electrophoresis.

Turning to “AGAGTTATATACTGCTTTGATTTGCT (double strand) [EZH2-WT probe]”, the binding result (HA-HBP1 delRepression co-expressed (no effect on supershift)) is “binds” and the binding result (HEK293T nuclear extract 4 ug) was “binds”.

The values above are taken from paper PMC4933444.
